Test system: sarcoma M-1
Test: Necrotic area in sarcoma M-1 after PDT
Assay type: in vivo, rats
Conditions: 5.0 mg/kg, PDT 100 J/cm^2 at 4 hours, mean of 25 slides
Method: After fixation, transverse sections of the tumor nodule in its highest diameter were made, and pictures were taken by a camera connected to a computer.
For quantitative assessment of necroses formed after PDT, computer analysis of color tints of histo-topographic tumor slides was performed using a special program.
The program included an algorithm of blue color identification (Evans blue), which stained viable areas of the tumor. Tumor areas killed from direct cytotoxic effect or due to structural-functional disorders of microcirculation were not stained in blue. The ratio of all non-stained dots to the total amount of dots in the fence of the tumor slide was considered to be the destruction efficiency.
For this purpose, a laser medical instrument “ ? 680-2000” (BIOSPEC, Moscow) was used to perform the exposure at a wavelength of 670 nm in a dose of 100 J/cm^2. The power density was 0.51 W/cm^2, the output power was 0.4 W, and the spot light diameter was 1 cm. Time of exposure was […]. Monitoring over radiating power was conducted by a universal power meter included in the laser device “ ? 680-2000”.

“[γ-(6-aminohexyl)folic acid]-chlorin e6 [chlorin e6 conjugate]” was tested, and the “Slide area of sarcoma M-1” value was 2.255 cm^2.

From patent publication US20120035180A1, “PHARMACEUTICAL COMPOSITION FOR TREATING CANCER COMPRISING CHLORIN E6-FOLIC ACID CONJUGATE COMPOUND AND CHITOSAN” (priority 2009, published 2012)
